# Results reported in US7700636B2, “Thiadiazole compounds and methods of use” (Amgen Inc., priority 2004, dated 2010).
# Amino acid sequences for entries named in this document (tags omitted). Residues count along the entry.
# UniProt P31749, 118-480 limits assumed: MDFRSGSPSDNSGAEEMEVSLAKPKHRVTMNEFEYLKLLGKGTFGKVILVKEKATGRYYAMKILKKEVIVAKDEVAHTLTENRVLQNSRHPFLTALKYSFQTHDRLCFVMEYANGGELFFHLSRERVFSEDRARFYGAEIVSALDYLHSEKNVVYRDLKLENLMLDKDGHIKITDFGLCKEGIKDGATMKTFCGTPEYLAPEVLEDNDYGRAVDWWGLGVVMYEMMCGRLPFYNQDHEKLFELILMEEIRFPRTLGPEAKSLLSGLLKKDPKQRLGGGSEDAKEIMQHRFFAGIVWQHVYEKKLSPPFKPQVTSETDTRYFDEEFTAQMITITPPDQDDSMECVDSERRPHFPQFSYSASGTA
# Some entries share one result that the patent states for a list of compounds.
# Key:
# PKB = PKB activity in cells: phosphorylation of PKB substrates FKHRL1, GSK3a/b and Tuberin by immunoassay in MDA-MB-468; assay type: cell-based; conditions: PTEN null human breast tumor cell line MDA-MB-468; phospho-FKHRL1, GSK3a/b, Tuberin; read-out: PKB kinase activity IC50 in cells
# PKBα = molecular target: T1, PKBα (Homo sapiens, UniProt P31749); assay: PKB kinase assay (P33-labeled ATP, peptide substrate, filter plate); assay type: biochemical; conditions: full length PKBα and PKBα kinase domain with pleckstrin domain (amino acids 1-117) deleted
# T1 construct: fused on or other part: Probably a His tag on the vendor's proteins
SMILES,IC50 (PKB) [µM],IC50 (PKBα) [µM]
"N[C@H](CNc1nnc(-c2cc3cn[nH]c3cc2F)s1)Cc1ccc(C(F)(F)F)cc1 [Example 90, N-((S)-2-amino-3-(4-(trifluoromethyl)phenyl)propyl)-5-(6-fluoro-1H-indazol-5-yl)-1,3,4-thiadiazol-2-amine]",< 10,< 10
"Cc1n[nH]c2ccc(-c3nnc(NC[C@@H](N)Cc4ccc(NS(C)(=O)=O)cc4)s3)cc12 [Example 59, N-(4-((S)-2-amino-3-(5-(3-methyl-1H-indazol-5-yl)-1,3,4-thiadiazol-2-ylamino)propyl)phenyl)methanesulfonamide]",< 10,< 10
"Cc1n[nH]c2ccc(-c3nnc(NC[C@@H](N)Cc4ccc(C(C)(C)C)cc4)s3)cc12 [Example 66, N-((S)-2-amino-3-(4-tert-butylphenyl)propyl)-5-(3-methyl-1H-indazol-5-yl)-1,3,4-thiadiazol-2-amine]",< 10,< 10
"Cc1ccc(C[C@H](N)CNc2nnc(-c3ccc4cnccc4c3)s2)cc1 [Example 154, N-((S)-2-amino-3-p-tolylpropyl)-5-(isoquinolin-6-yl)-1,3,4-thiadiazol-2-amine]",< 10,< 10
"N[C@H](CNc1nnc(-c2ccc3[nH]ncc3c2)s1)Cc1ccc(O)c(Cl)c1 [Example 160, 4-((S)-3-(5-(1H-indazol-5-yl)-1,3,4-thiadiazol-2-ylamino)-2-aminopropyl)-2-chlorophenol]",< 10,< 10
"CC(C)C[C@H](N)CNc1nnc(-c2ccc3[nH]nc(-c4ccccc4)c3c2)s1 [Example 122, N-((S)-2-amino-4-methylpentyl)-5-(3-phenyl-1H-indazol-5-yl)-1,3,4-thiadiazol-2-amine]",< 10,< 10
"Cc1n[nH]c2ccc(-c3nnc(NC[C@@H](N)Cc4cccnc4)s3)cc12 [Example 40, (S)-N-[5-(3-Methyl-1H-indazol-5-yl)-[1,3,4]thiadiazol-2-yl]-3-pyridin-3-yl-propane-1,2-diamine]",< 10,< 10
"CC(C)c1ccc(C[C@H](N)CNc2nnc(-c3ccc4[nH]ncc4c3)s2)cc1 [Example 76, N-((S)-2-amino-3-(4-isopropylphenyl)propyl)-5-(1H-indazol-5-yl)-1,3,4-thiadiazol-2-amine]",< 10,< 10
"c1ccc([C@H]2CN[C@H](CNc3nnc(-c4ccc5[nH]ncc5c4)s3)C2)cc1 [Example 159, 5-(1H-indazol-5-yl)-N-(((2S,4S)-4-phenylpyrrolidin-2-yl)methyl)-1,3,4-thiadiazol-2-amine]",< 10,< 10
"Cc1cc2[nH]ncc2cc1-c1nnc(NC[C@@H](N)Cc2ccc(C(F)(F)F)cc2)s1 [Example 96, N-((S)-2-amino-3-(4-(trifluoromethyl)phenyl)propyl)-5-(6-methyl-1H-indazol-5-yl)-1,3,4-thiadiazol-2-amine]",< 10,< 10
"Cc1n[nH]c2ccc(-c3nnc(NC[C@H](Cc4cccc(C(F)(F)F)c4)NC(C)C)s3)cc12 (stereo in doubt) [Example 135, N-isopropyl-1-(5-(3-methyl-1H-indazol-5-yl)-1,3,4-thiadiazol-2-ylamino)-3-(3-(trifluoromethyl)phenyl)propan-2-aminium chloride]",< 10,< 10
"Cc1n[nH]c2ccc(-c3nnc(NC[C@@H](N)COCc4ccccc4)s3)cc12 [Example 128, N-((R)-2-amino-3-(benzyloxy)propyl)-5-(3-methyl-1H-indazol-5-yl)-1,3,4-thiadiazol-2-amine]",< 10,< 10
"Cc1cc2[nH]ncc2cc1-c1nnc(N)s1 [Example 94, 5-(6-methyl-1H-indazol-5-yl)-1,3,4-thiadiazol-2-amine]",< 10,< 10
"N[C@H](CNc1nnc(-c2ccc3[nH]nc(-c4ccccc4)c3c2)s1)Cc1cccc(C(F)(F)F)c1 [Example 123, N-((S)-2-amino-3-(3-(trifluoromethyl)phenyl)propyl)-5-(3-phenyl-1H-indazol-5-yl)-1,3,4-thiadiazol-2-amine]",< 10,< 10
"Nc1nnc(-c2cc3cn[nH]c3cc2F)s1 [Example 88, 5-(6-fluoro-1H-indazol-5-yl)-1,3,4-thiadiazol-2-amine]",< 10,< 10
"Cc1n[nH]c2ccc(-c3nnc(NC[C@@H](N)Cc4ccc(O)cc4)s3)cc12 [Example 58, 4-((S)-2-amino-3-(5-(3-methyl-1H-indazol-5-yl)-1,3,4-thiadiazol-2-ylamino)propyl)phenol]",< 10,< 10
"Cc1n[nH]c2ccc(-c3nnc(NCC[C@H](N)Cc4cc5ccccc5[nH]4)s3)cc12 [Example 19, (S)-1-(1H-Indol-2-ylmethyl)-3-[5-(3-methyl-1H-indazol-5-yl)-[1,3,4]thiadiazol-2-ylamino]-propyl-ammonium trifluoro-acetate]",< 10,< 10
"N[C@H](CNc1nnc(-c2cc3cn[nH]c3cc2F)s1)Cc1ccccc1 [Example 91, N-((S)-2-amino-3-phenylpropyl)-5-(6-fluoro-1H-indazol-5-yl)-1,3,4-thiadiazol-2-amine]",< 10,< 10
"CCCCCCCN(CCCCCCC)C(CNc1nnc(-c2ccc3[nH]nc(C)c3c2)s1)Cc1cccc(C(F)(F)F)c1 (centres unmarked) [Example 138, N-heptyl-N-(1-(5-(3-methyl-1H-indazol-5-yl)-1,3,4-thiadiazol-2-ylamino)-3-(3-(trifluoromethyl)phenyl)propan-2-yl)heptan-1-aminium 2,2,2-trifluoroacetate]",< 10,< 10
"Cc1c(-c2nnc(NC[C@@H](N)Cc3ccc(C(F)(F)F)cc3)s2)ccc2[nH]ncc12 [Example 114, N-((S)-2-amino-3-(4-(trifluoromethyl)phenyl)propyl)-5-(4-methyl-1H-indazol-5-yl)-1,3,4-thiadiazol-2-amine]",< 10,< 10
"Cc1n[nH]c2ccc(-c3nnc(NC[C@@H](N)Cc4cccc(-c5ccccc5)c4)s3)cc12 [Example 61, N-((S)-2-amino-3-((3-phenyl)phenyl)propyl)-5-(3-methyl-1H-indazol-5-yl)-1,3,4-thiadiazol-2-amine]",< 10,< 10
"Nc1nnc(-c2ccc3[nH]nc(C4CC4)c3c2)s1 [Example 117, 5-(3-cyclopropyl-1H-indazol-5-yl)-1,3,4-thiadiazol-2-amine]",< 10,< 10
"COc1ccc(C[C@H](N)CNc2nnc(-c3ccc4cnccc4c3)s2)cc1 [Example 145, N-((S)-2-amino-3-(4-methoxyphenyl)propyl)-5-(isoquinolin-6-yl)-1,3,4-thiadiazol-2-amine]",< 10,< 10
"Cc1n[nH]c2ccc(-c3nnc(NCC[C@@H](N)Cc4ccccc4)s3)cc12 [Example 50, (2S)-4-(5-(3-methyl-1H-indazol-5-yl)-1,3,4-thiadiazol-2-ylamino)-1-phenylbutan-2-aminium 2,2,2-trifluoroacetate]",< 10,< 10
"CN[C@H](CNc1nnc(-c2ccc3[nH]ncc3c2)s1)Cc1ccc(Cl)cc1 [Example 133, N-((S)-3-(4-chlorophenyl)-2-(methylamino)propyl)-5-(1H-indazol-5-yl)-1,3,4-thiadiazol-2-amine]",< 10,< 10
